# From PubChem BioAssay AID2061317 (National Center for Advancing Translational Sciences (NCATS), 2025)
# This list was built around the results that the source calls inconclusive (neither active nor inactive); the mix of calls is not that of the screen. Potencies of inconclusive entries are doubtful fits and often do not repeat. Activity calls are given as the source filed them. Calls follow the shape of the dose curve; as a rule, active = well fitted inhibition curve with a large enough effect; inconclusive = small, poorly fitted or top-dose-only effect; inactive = flat fitted curve, though single readings scatter.
# Experiment: Identification of antibody-drug conjugate (ADC) payloads which are substrates of ATP-binding cassette drug efflux transporters: ABCB1-HEK293-MDR-19 cell line with tariquidar
# Details: HEK293 ABCB1 (MDR-19) + tariquidar, CellTiter-Glo viability, 48 h
# From the text: Antibody-drug conjugates (ADCs) feature an antibody recognizing a specific protein joined to a potent toxic payload. Numerous antibody-drug conjugates have received FDA approval; however, clinical resistance arises. Resistance mechanisms include decreased expression or mutation of the antibody target, impaired payload release, or increased expression of ATP-binding cassette (ABC) efflux transporters associated with multidrug resistance. We therefore sought to characterize the interaction of ABC multidrug transporters with ADC payloads. We performed a high-throughput screen with 27 common ADC payloads using cells lines expressing ABC transporters P-glycoprotein (P-gp, encoded by ABCB1) or ABCG2 (encoded by ABCG2). Confirmatory assays were also performed using cells transfected to express P-gp, ABCG2, or MRP1 (encoded by ABCC1). Several commonly used ADC payloads were substrates of P-gp, including calicheamicin gamma1, monomethyl auristatin E, DM1, and DM4. All the pyrrolobenzodiazepines tested - SJG136, SGD-1882, SG2057, and SG3199 - were substrates of P-gp, ABCG2, and MRP1. […] These findings highlight the risk of transporter-mediated resistance with certain ADC payloads and underscore the importance of selecting payloads that evade ABC transporter recognition in future ADC development.
# HEK-293 cells were transfected with empty vector (pcDNA) or vector containing the human ABCB1 (MDR-19), ABCG2 (R-5), or ABCC1 gene (MRP1) and were maintained in EMEM with 2 mg/mL G418 added to maintain transporter expression. The HeLa derivative KB-3-1 and the P-gp overexpressing KB-8-5-11 subline were maintained in DMEM; KB-8-5-11 additionally received 100 ng/mL colchicine. H460 parental cells were obtained from the Division of Cancer Treatment and Diagnosis Tumor Repository, National Cancer Institute at Frederick, MD and were cultured in RPMI. The ABCG2 expressing subline H460 MX20 was generated by selecting H460 cells in 20 nM mitoxantrone. Media in all cases was supplemented with 10% FBS and 1% penicillin-streptomycin. We explored 27 common ADC payloads, in two orthogonal, paired cell line sets-a drug selected and transfected set for each transporter--to identify substrates of the ABC transporters P-gp and ABCG2. Compounds were sourced from Levena Biopharma (San Diego, CA), Selleck Chem (Houston, TX), ChemieTek (Indianapolis, IN), or Microsource Discovery Systems (Gaylordsville, CT). Screening was performed as previously described. Briefly, cells were plated at a density of 500 cells/well in 1536 well plates with compounds added using a 1536-head pin tool (Kalypsys, San Diego CA). Cells were incubated with cytotoxic drugs and processed with CellTiter Glo reagent (Promega, Madison, WI) to determine viability after 48 hours. P-gp substrates were identified by comparing compound activity between paired sets of low-expressing (sensitive) and over-expressing (resistant) cell lines.
row,Structure (SMILES),Potency
1,CC[C@H](C)[C@@H]([C@H](N)CC(=O)N1CCC[C@H]1[C@H](OC)[C@@H](C)C(=O)N[C@@H](Cc1ccccc1)c1nccs1)N(C)C(=O)[C@@H](NC(=O)[C@H](C(C)C)N(C)C)C(C)C,inconclusive: 0.4 nM [full curve]
2,CCN[C@H]1CO[C@@H](O[C@H]2[C@H](O[C@H]3C#C/C=C\C#C[C@]4(O)CC(=O)C(NC(=O)OC)=C3/C4=C\CSSSC)O[C@H](C)[C@@H](NO[C@H]3C[C@H](O)[C@H](SC(=O)c4c(C)c(I)c(O[C@@H]5O[C@@H](C)[C@H](O)[C@@H](OC)[C@H]5O)c(OC)c4OC)[C@@H](C)O3)[C@@H]2O)C[C@@H]1OC,active: 0.1 nM
3,CC[C@]1(O)CC2CN(CCc3c([nH]c4ccccc34)[C@@](C(=O)OC)(c3cc4c(cc3OC)N(C)[C@H]3[C@@](O)(C(=O)OC)[C@H](OC(C)=O)[C@]5(CC)C=CCN6CC[C@]43[C@@H]65)C2)C1 (stereo partly drawn),"inconclusive: 18.8 nM [falling, full curve]"
4,COc1cc2cc(c1Cl)N(C)C(=O)C[C@H](O)[C@]1(C)O[C@H]1[C@H](C)C1C[C@@](O)(NC(=O)O1)[C@H](OC)/C=C/C=C(\C)C2,active: 2650 nM
5,CC[C@H](C)[C@@H]([C@H](N)CC(=O)N1CCC[C@H]1[C@H](OC)[C@@H](C)C(=O)N[C@@H](Cc1ccccc1)c1nccs1)N(C)C(=O)[C@@H](NC(=O)[C@@H](NC)C(C)C)C(C)C,inconclusive: 0.4 nM [full curve]
6,COc1ccc(C2=CN3C(=O)c4cc(OC)c(OCCCOc5cc6c(cc5OC)C(=O)N5C=C(c7ccc(N)cc7)C[C@@H]5C=N6)cc4N=C[C@H]3C2)cc1,"inconclusive: 2.4 nM [falling, full curve]"
7,CCc1c2c(nc3ccc(O)cc13)-c1cc3c(c(=O)n1C2)COC(=O)[C@]3(O)CC,active: 4.2 nM
8,COC(=O)c1cc2c3c(cc(O)c2[nH]1)N(C(=O)c1cc2cc(OC)c(OC)c(OC)c2[nH]1)CC3CCl (stereo not drawn),active: 0.7 nM

# Reprinted from above, two compounds:
row,Structure (SMILES),Potency
4,COc1cc2cc(c1Cl)N(C)C(=O)C[C@H](O)[C@]1(C)O[C@H]1[C@H](C)C1C[C@@](O)(NC(=O)O1)[C@H](OC)/C=C/C=C(\C)C2,active: 2650 nM
5,CC[C@H](C)[C@@H]([C@H](N)CC(=O)N1CCC[C@H]1[C@H](OC)[C@@H](C)C(=O)N[C@@H](Cc1ccccc1)c1nccs1)N(C)C(=O)[C@@H](NC(=O)[C@@H](NC)C(C)C)C(C)C,inconclusive: 0.4 nM [full curve]
